Common to all, as to assay: affinity purification with mass spectrometry
Assay [1] concerns the target OCRL (not stated (library cDNAs: human, mouse, rat or chimpanzee; Table S1)) (UniProt Q01968).
Assay [2] has as its target T1, ARHGAP44 (not stated (library cDNAs: human, mouse, rat or chimpanzee; Table S1)) (UniProt Q17R89).
T1 sequence: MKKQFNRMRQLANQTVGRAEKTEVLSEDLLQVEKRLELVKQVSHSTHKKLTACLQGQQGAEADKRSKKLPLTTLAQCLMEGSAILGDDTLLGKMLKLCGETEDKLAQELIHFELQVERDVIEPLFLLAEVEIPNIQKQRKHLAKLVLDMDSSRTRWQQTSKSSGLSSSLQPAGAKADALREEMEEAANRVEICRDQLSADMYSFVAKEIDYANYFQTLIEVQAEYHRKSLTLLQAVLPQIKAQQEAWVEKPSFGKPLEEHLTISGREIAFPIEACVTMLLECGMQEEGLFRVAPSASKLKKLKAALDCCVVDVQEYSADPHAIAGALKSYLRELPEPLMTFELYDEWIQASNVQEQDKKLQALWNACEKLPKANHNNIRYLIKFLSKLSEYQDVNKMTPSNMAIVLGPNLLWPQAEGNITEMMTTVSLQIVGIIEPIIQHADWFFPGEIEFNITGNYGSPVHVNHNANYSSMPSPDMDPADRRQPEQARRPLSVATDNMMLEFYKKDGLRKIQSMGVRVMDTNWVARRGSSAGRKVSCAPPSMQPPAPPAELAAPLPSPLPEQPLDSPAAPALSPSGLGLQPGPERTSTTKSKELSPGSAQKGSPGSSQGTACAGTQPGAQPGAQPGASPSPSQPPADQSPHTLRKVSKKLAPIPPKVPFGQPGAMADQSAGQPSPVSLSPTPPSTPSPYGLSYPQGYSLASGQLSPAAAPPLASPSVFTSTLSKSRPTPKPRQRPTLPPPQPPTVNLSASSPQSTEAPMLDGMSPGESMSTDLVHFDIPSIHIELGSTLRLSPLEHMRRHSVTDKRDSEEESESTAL

The chains behind the UniProt entries cited, without tags or fusion partners.
UniProt Q01968: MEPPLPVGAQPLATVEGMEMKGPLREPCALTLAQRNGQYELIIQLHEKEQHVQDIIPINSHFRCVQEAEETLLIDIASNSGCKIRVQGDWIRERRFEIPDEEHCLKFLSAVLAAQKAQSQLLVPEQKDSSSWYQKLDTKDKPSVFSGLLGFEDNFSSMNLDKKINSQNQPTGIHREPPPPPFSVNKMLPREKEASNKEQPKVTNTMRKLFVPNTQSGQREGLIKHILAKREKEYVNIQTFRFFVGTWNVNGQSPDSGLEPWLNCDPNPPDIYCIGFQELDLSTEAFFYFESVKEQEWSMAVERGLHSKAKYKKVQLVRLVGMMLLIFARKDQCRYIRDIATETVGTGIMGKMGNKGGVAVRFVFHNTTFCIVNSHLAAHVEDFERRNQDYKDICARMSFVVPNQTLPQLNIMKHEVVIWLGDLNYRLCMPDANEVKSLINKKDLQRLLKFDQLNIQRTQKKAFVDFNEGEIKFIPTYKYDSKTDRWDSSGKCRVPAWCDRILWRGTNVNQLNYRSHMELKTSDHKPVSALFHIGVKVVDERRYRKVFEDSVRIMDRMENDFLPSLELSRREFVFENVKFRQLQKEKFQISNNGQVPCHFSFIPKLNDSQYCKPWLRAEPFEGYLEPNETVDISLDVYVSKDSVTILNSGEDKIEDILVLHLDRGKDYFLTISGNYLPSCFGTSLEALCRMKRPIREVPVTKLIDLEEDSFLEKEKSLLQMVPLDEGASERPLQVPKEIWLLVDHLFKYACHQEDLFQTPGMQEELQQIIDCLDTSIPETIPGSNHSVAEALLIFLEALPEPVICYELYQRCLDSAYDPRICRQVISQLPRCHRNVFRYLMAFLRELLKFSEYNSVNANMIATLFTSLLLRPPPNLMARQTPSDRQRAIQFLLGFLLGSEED
UniProt P32019: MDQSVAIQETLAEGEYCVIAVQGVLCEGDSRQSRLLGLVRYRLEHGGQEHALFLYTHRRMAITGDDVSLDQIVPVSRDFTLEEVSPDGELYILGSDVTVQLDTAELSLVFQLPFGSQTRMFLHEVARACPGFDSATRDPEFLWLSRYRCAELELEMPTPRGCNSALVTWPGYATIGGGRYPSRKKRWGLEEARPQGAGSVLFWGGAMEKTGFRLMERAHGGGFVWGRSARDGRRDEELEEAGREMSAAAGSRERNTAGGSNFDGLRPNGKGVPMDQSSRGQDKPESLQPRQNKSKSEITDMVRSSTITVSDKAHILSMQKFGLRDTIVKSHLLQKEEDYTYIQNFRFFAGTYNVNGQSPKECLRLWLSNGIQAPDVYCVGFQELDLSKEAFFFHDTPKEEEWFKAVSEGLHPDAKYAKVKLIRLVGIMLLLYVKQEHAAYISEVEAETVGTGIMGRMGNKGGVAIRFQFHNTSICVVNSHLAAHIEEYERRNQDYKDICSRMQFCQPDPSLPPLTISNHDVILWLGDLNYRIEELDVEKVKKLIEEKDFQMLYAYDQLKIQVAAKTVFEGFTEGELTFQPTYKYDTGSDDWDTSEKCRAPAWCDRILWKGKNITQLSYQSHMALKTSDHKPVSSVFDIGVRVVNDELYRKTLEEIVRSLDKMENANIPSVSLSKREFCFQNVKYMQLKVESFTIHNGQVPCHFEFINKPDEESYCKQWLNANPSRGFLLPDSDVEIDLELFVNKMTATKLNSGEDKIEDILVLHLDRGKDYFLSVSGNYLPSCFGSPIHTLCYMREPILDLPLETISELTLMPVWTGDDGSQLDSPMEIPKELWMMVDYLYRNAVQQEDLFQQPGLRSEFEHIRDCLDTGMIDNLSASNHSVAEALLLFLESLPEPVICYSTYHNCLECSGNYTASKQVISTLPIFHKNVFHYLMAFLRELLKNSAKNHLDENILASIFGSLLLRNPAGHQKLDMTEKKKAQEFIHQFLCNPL

Assay [3] has as its target T2, ARHGEF39 (not stated (library cDNAs: human, mouse, rat or chimpanzee; Table S1)) (UniProt Q8N4T4).
T2 sequence: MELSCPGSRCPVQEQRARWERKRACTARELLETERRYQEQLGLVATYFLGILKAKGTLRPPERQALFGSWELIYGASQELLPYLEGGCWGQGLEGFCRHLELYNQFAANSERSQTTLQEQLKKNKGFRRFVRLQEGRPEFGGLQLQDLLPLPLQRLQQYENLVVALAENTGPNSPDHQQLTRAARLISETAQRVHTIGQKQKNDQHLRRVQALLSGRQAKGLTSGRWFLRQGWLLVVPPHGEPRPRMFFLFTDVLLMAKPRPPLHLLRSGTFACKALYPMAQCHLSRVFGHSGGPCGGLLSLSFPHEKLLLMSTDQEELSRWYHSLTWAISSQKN

No constants are given. Whether binding was seen depends on the method and setting. Binding seen in cells or lysates may run through a third protein. Here binding means that the protein was enriched with, or labelled near, the bait; the list need not be complete.

On to INPP5B (from UniProt P32019 1-993), for which, in assay [1], the binding entry is “binds”.

B1: ARHGAP17 (protein, UniProt Q68EM7 1-881)
chain: MKKQFNRMKQLANQTVGRAEKTEVLSEDLLQIERRLDTVRSICHHSHKRLVACFQGQHGTDAERRHKKLPLTALAQNMQEASTQLEDSLLGKMLETCGDAENQLALELSQHEVFVEKEIVDPLYGIAEVEIPNIQKQRKQLARLVLDWDSVRARWNQAHKSSGTNFQGLPSKIDTLKEEMDEAGNKVEQCKDQLAADMYNFMAKEGEYGKFFVTLLEAQADYHRKALAVLEKTLPEMRAHQDKWAEKPAFGTPLEEHLKRSGREIALPIEACVMLLLETGMKEEGLFRIGAGASKLKKLKAALDCSTSHLDEFYSDPHAVAGALKSYLRELPEPLMTFNLYEEWTQVASVQDQDKKLQDLWRTCQKLPPQNFVNFRYLIKFLAKLAQTSDVNKMTPSNIAIVLGPNLLWARNEGTLAEMAAATSVHVVAVIEPIIQHADWFFPEEVEFNVSEAFVPLTTPSSNHSFHTGNDSDSGTLERKRPASMAVMEGDLVKKESFGVKLMDFQAHRRGGTLNRKHISPAFQPPLPPTDGSTVVPAGPEPPPQSSRAESSSGGGTVPSSAGILEQGPSPGDGSPPKPKDPVSAAVPAPGRNNSQIASGQNQPQAAAGSHQLSMGQPHNAAGPSPHTLRRAVKKPAPAPPKPGNPPPGHPGGQSSSGTSQHPPSLSPKPPTRSPSPPTQHTGQPPGQPSAPSQLSAPRRYSSSLSPIQAPNHPPPQPPTQATPLMHTKPNSQGPPNPMALPSEHGLEQPSHTPPQTPTPPSTPPLGKQNPSLPAPQTLAGGNPETAQPHAGTLPRPRPVPKPRNRPSVPPPPQPPGVHSAGDSSLTNTAPTASKIVTDSNSRVSEPHRSIFPEMHSDSASKDVPGRILLDIDNDTESTAL
For the molecule B1, the binding entry in assay [2] is given as “binds”.

B2: BCR (protein, UniProt P11274 1-1271)
chain: MVDPVGFAEAWKAQFPDSEPPRMELRSVGDIEQELERCKASIRRLEQEVNQERFRMIYLQTLLAKEKKSYDRQRWGFRRAAQAPDGASEPRASASRPQPAPADGADPPPAEEPEARPDGEGSPGKARPGTARRPGAAASGERDDRGPPASVAALRSNFERIRKGHGQPGADAEKPFYVNVEFHHERGLVKVNDKEVSDRISSLGSQAMQMERKKSQHGAGSSVGDASRPPYRGRSSESSCGVDGDYEDAELNPRFLKDNLIDANGGSRPPWPPLEYQPYQSIYVGGMMEGEGKGPLLRSQSTSEQEKRLTWPRRSYSPRSFEDCGGGYTPDCSSNENLTSSEEDFSSGQSSRVSPSPTTYRMFRDKSRSPSQNSQQSFDSSSPPTPQCHKRHRHCPVVVSEATIVGVRKTGQIWPNDGEGAFHGDADGSFGTPPGYGCAADRAEEQRRHQDGLPYIDDSPSSSPHLSSKGRGSRDALVSGALESTKASELDLEKGLEMRKWVLSGILASEETYLSHLEALLLPMKPLKAAATTSQPVLTSQQIETIFFKVPELYEIHKEFYDGLFPRVQQWSHQQRVGDLFQKLASQLGVYRAFVDNYGVAMEMAEKCCQANAQFAEISENLRARSNKDAKDPTTKNSLETLLYKPVDRVTRSTLVLHDLLKHTPASHPDHPLLQDALRISQNFLSSINEEITPRRQSMTVKKGEHRQLLKDSFMVELVEGARKLRHVFLFTDLLLCTKLKKQSGGKTQQYDCKWYIPLTDLSFQMVDELEAVPNIPLVPDEELDALKIKISQIKNDIQREKRANKGSKATERLKKKLSEQESLLLLMSPSMAFRVHSRNGKSYTFLISSDYERAEWRENIREQQKKCFRSFSLTSVELQMLTNSCVKLQTVHSIPLTINKEDDESPGLYGFLNVIVHSATGFKQSSNLYCTLEVDSFGYFVNKAKTRVYRDTAEPNWNEEFEIELEGSQTLRILCYEKCYNKTKIPKEDGESTDRLMGKGQVQLDPQALQDRDWQRTVIAMNGIEVKLSVKFNSREFSLKRMPSRKQTGVFGVKIAVVTKRERSKVPYIVRQCVEEIERRGMEEVGIYRVSGVATDIQALKAAFDVNNKDVSVMMSEMDVNAIAGTLKLYFRELPEPLFTDEFYPNFAEGIALSDPVAKESCMLNLLLSLPEANLLTFLFLLDHLKRVAEKEAVNKMSLHNLATVFGPTLLRPSEKESKLPANPSQPITMTDSWSLEVMSQVQVLLYFLQLEAIPAPDSKRQSILFSTEV
Take B2: the binding result in assay [3] is “binds”.

The values are drawn from article doi:10.1101/354316.
